Values as published with doi:10.1371/journal.pone.0140310, rounded.

Drug key:
NVP-TAE684 (0.08 µM): COc1cc(N2CCC(N3CCN(C)CC3)CC2)ccc1Nc1ncc(Cl)c(Nc2ccccc2S(=O)(=O)C(C)C)n1
pioglitazone (2 µM): CCc1ccc(CCOc2ccc(CC3SC(=O)NC3=O)cc2)nc1 (stereo not given)
GSK650394 (0.16 µM): O=C(O)c1ccc(-c2c[nH]c3ncc(-c4ccccc4)cc23)cc1C1CCCC1
LFM-A13 (2 µM): C/C(O)=C(\C#N)C(=O)Nc1cc(Br)ccc1Br
SNS-032 (0.01 µM): CC(C)(C)c1cnc(CSc2cnc(NC(=O)C3CCNCC3)s2)o1
GW441756 (0.4 µM): Cn1cc(/C=C2\C(=O)Nc3cccnc32)c2ccccc21
GW0742 (2 µM): Cc1cc(SCc2sc(-c3ccc(C(F)(F)F)c(F)c3)nc2C)ccc1OCC(=O)O
bortezomib (0.001 µM): CC(C)C[C@H](NC(=O)[C@H](Cc1ccccc1)NC(=O)c1cnccn1)B(O)O

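The test systems are human melanoma cell lines, treated with a pair of drugs for 72 h and then stained and imaged. The read-out is cell count (nuclei) in % of the DMSO control; lower values mean stronger growth inhibition or killing. Concentrations were fixed for each drug; these are the lower of two levels, a fifth of the higher. The file gives one value for each pair and line, without errors, so small differences may be noise.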 Only some of the drugs and lines screened are listed, without regard to their results. An entry leaves out what has no value listed here. A dash means that no value is listed here.

Combination	COLO 792	A2058	COLO 829	LOX IMVI	IPC-298	LB2518-MEL	COLO 800	501mel	C32	A375	A101D	MEL-HO	G-361	IST-MEL1
bortezomib and GSK650394	94.0	88.8	57.6	85.7	74.5	39.0	91.3	-	109	88.5	25.3	87.6	7.0	83.2
GW0742 and pioglitazone	98.8	103	117	108	104	117	107	76.2	95.9	94.5	87.6	95.8	89.8	100
GSK650394 and pioglitazone	114	105	88.3	64.1	98.0	105	113	118	100	103	106	106	93.5	97.2
pioglitazone and GW441756	104	104	95.1	96.3	109	97.7	135	110	101	80.9	89.9	98.9	100	95.3
GW441756 and GW0742	111	108	94.6	76.7	101	117	62.9	104	95.0	99.7	101	85.6	101	90.6
GW441756 and LFM-A13	102	99.2	101	104	90.4	112	90.8	91.9	95.9	108	95.0	85.7	103	97.6
NVP-TAE684 and GW0742	110	117	97.3	94.6	97.1	105	93.0	82.4	78.1	120	123	98.3	104	103
pioglitazone and bortezomib	99.1	89.2	62.8	46.1	68.8	41.4	95.6	31.0	81.4	-	25.2	96.6	4.3	69.6
LFM-A13 and pioglitazone	108	91.3	99.3	87.1	95.7	84.7	87.1	81.7	77.7	89.5	105	91.4	97.2	93.9
bortezomib and GW441756	97.8	87.1	57.6	55.5	60.7	29.5	103	33.7	85.7	-	25.2	74.7	3.0	84.5
GW0742 and LFM-A13	99.9	111	96.4	75.8	106	104	67.6	108	95.8	113	101	92.7	100	95.0
GSK650394 and SNS-032	104	87.7	131	64.0	111	96.5	82.4	-	89.3	97.8	92.2	102	98.1	92.2
GSK650394 and GW441756	95.1	95.3	106	93.9	93.4	112	103	107	93.9	83.8	107	92.5	97.2	92.1
SNS-032 and GW0742	83.2	97.5	110	90.0	107	94.4	98.2	93.1	105	95.7	110	101	106	99.1
LFM-A13 and bortezomib	93.4	87.5	71.7	71.9	76.9	35.9	96.5	47.2	86.8	-	37.5	81.5	7.5	87.0
SNS-032 and GW441756	98.4	93.9	95.6	93.5	104	105	118	92.8	114	102	93.5	116	100	98.5
bortezomib and SNS-032	84.0	89.8	69.2	52.4	77.2	36.1	86.1	-	102	104	37.2	89.2	6.5	94.8
pioglitazone and NVP-TAE684	90.5	94.0	105	87.4	103	126	100	84.0	84.7	76.1	97.8	97.5	98.2	96.9
SNS-032 and NVP-TAE684	94.5	93.1	79.5	101	93.5	97.6	77.2	95.2	92.2	82.9	106	82.6	79.6	96.1
NVP-TAE684 and LFM-A13	88.5	66.2	95.7	95.3	102	88.5	102	90.6	114	77.9	103	74.3	82.5	96.9
GW0742 and bortezomib	90.5	89.4	46.8	60.0	85.5	-	124	-	70.0	-	17.2	77.7	2.9	77.0
GSK650394 and GW0742	100	112	98.9	64.7	96.6	103	95.5	89.1	96.3	98.8	110	87.0	99.1	98.6
NVP-TAE684 and GSK650394	108	84.8	62.7	128	103	106	110	95.1	90.2	111	99.1	94.6	86.3	95.2
SNS-032 and LFM-A13	95.3	92.9	67.0	85.4	110	90.1	63.7	80.5	115	94.9	105	85.5	108	102
pioglitazone and SNS-032	98.1	102	99.2	60.5	109	108	88.5	104	90.0	83.8	82.4	91.4	102	108
LFM-A13 and GSK650394	91.2	95.1	124	56.1	93.9	101	98.0	104	98.8	88.5	102	84.8	96.8	89.2

For reference, 2 entries once more:

{"combination": "bortezomib and GSK650394", "COLO 792": 94.0, "A2058": 88.8, "COLO 829": 57.6, "LOX IMVI": 85.7, "IPC-298": 74.5, "LB2518-MEL": 39.0, "COLO 800": 91.3, "C32": 109, "A375": 88.5, "A101D": 25.3, "MEL-HO": 87.6, "G-361": 7.0, "IST-MEL1": 83.2}
{"combination": "pioglitazone and SNS-032", "COLO 792": 98.1, "A2058": 102, "COLO 829": 99.2, "LOX IMVI": 60.5, "IPC-298": 109, "LB2518-MEL": 108, "COLO 800": 88.5, "501mel": 104, "C32": 90.0, "A375": 83.8, "A101D": 82.4, "MEL-HO": 91.4, "G-361": 102, "IST-MEL1": 108}